Measured values reported in PubChem BioAssay AID334 (DTP/NCI, 2004).
Values joined by “and” are separate entries in the source; they are usually repeats but may differ in a detail not shown here. Identical values can stand only once. Toxic doses and inconclusive results are not listed. The calls were made as follows: active = survival T/C of 150% or more; inactive = T/C below 125% in these data.

Test system: CD2F1 mice, intracerebral P388 leukemia, median survival T/C%
Assay: NCI In Vivo Anticancer Drug Screen. Data for tumor model P388 Leukemia (intracerebral) in CD2F1 (CDF1) mice
Details: endpoint: median survival time, schedule: Q01DX005 (ip), vehicle: Klucel (hydroxypropylcellulose) (HPC), higher = longer survival
Method: The antitumor activity of compounds was measured in mice bearing transplantable tumors. Survival or tumor size were measured and the results are expressed as the measurement made in the treated group (T) divided by the measurement made in the vehicle treated control group (C). The tumor model used in this assay is P388 Leukemia (intracerebral) in CD2F1 (CDF1) mice

Measured: T/C

COc1cc2c(c(OC)c1OC)-c1ccc(OC)c(=O)cc1[C@@H](N)CC2
inactive: dose: 4.0 mg/kg/injection 115 % of control and 120 % of control | dose: 8.0 mg/kg/injection 121 % of control and 111 % of control | dose: 16.0 mg/kg/injection 110 % of control
